# Test results published in PubChem BioAssay AID504467 (National Center for Advancing Translational Sciences (NCATS), 2011).
# About 7,700 (2.3%) of roughly 330,000 compounds were called active. The shares of active, inactive and inconclusive entries below differ from those in the screen. Calls follow the shape of the dose curve; as a rule, active = well fitted inhibition curve with a large enough effect; inconclusive = small, poorly fitted or top-dose-only effect, or effect the other way; inactive = flat fitted curve, though single readings scatter. A potency beside an inconclusive call is a rough fit, not a confirmed value.
# Assay: qHTS screen for small molecules that inhibit ELG1-dependent DNA repair in human embryonic kidney (HEK293T) cells expressing luciferase-tagged ELG1; also: nearly all actives have a fitted effect of over 55% in size
# Conditions: HEK293T ELG1-luciferase reporter, luminescence, 16 h, DNA damage induced by 5-fluorouridine; series mostly up to 46.1 µM
# How it was run: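 HEK293T cells expressing luciferase-tagged ELG1 (2,000/well) received 5-Fluorouridine plus compound or DMSO for 16 hr at 37 °C. Luciferase was read by ONE-Glo luminescence after 30 min at room temperature.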
# Potency is read from the fitted curve at half-maximal effect.
row,Structure (SMILES),Potency
1,Cc1cc(C)c(S(=O)(=O)N2CCOC2CNC(=O)C(=O)NCCCN2CCCC2=O)c(C)c1 (stereo not given),inactive
2,Cc1ccc(Nc2ncnc3ccccc23)cc1,"inconclusive: 8.2 µM [activator, partial curve]"
3,COCCCNC(=O)/C(=C\c1cccn1C)NC(=O)c1cccs1,inactive
4,CC1=C([N+](=O)[O-])C(c2ccc3c(c2)OCO3)N(C)C(=O)N1C (stereo not given),inactive
5,CS(=O)(=O)c1ccccc1-c1nc(-c2ccc(C(F)(F)F)cc2)no1,"inconclusive: 25.9 µM [inhibitor, single point]"
6,Cc1c(CC(=O)NCCCC(=O)O)c(=O)oc2cc3c(cc12)CCC(C)(C)O3,"inconclusive: 23.1 µM [inhibitor, partial curve]"
7,Cc1ccc(CN2C(=O)C(CC(C)C)Nc3ncnc(N4CCOCC4)c32)cc1 (stereo not given),inactive
8,O=C(CSc1nnc2ccccn12)c1ccccc1,"inconclusive: 11.6 µM [activator, partial curve]"
9,COc1cccc2[nH]c(C(=O)NCCc3ccccc3)cc12,"inconclusive: 20.6 µM [activator, partial curve]"
10,COc1ccc(C(=O)NC2CCCc3c2cnn3-c2cc(F)cc(F)c2)c(OC)c1OC (stereo not given),"inconclusive: 29.1 µM [inhibitor, single point]"
11,COc1ccccc1/C=C/C1(C(=O)NC2CCCC2)CC(=O)N1c1ccccc1 (stereo not given),inactive
12,Cc1[nH]nc(-c2ccc(O)cc2O)c1-c1ccc(Cl)cc1,inactive
13,NCCCCCc1cn(CC(=O)NCCCCCCCCCCC(=O)N2CCNCC2)nn1,"inconclusive: 11.2 µM [activator, single point]"
14,Cc1ccc(C(=O)Nc2nnc(-c3ccc(C(C)(C)C)cc3)s2)cc1,"inconclusive: 18.4 µM [activator, partial curve]"
15,Cc1cccn2c(=O)nc(SCC(=O)NCc3ccccc3Cl)nc12,"inconclusive: 29.1 µM [activator, single point]"
16,O=C(COC(=O)CNC(=O)c1ccc(Cl)cc1Cl)NC1CCCCC1,"inconclusive: 25.9 µM [activator, single point]"
17,CC(=O)Nc1ccc2c(c1)C(C)(C)C(C)N2C (stereo not given),"inconclusive: 23.1 µM [inhibitor, single point]"
18,CCc1noc(C)c1C(=O)Nc1ncc(C)s1,"inconclusive: 20.6 µM [activator, single point]"
19,N#CC1=C2SC=C(c3ccc(Br)cc3)N2CCCC1=O,"inconclusive: 4.61 µM [activator, full curve]"
20,Cc1nc(NC(=O)c2ccc(-c3cc4ccccc4oc3=O)cc2)ccc1Br,"inconclusive: 18.4 µM [activator, partial curve, poor fit]"
21,O=C(Nc1ccc2c(c1)OCO2)C1CCCCN1S(=O)(=O)c1ccccc1 (stereo not given),inactive
22,O=C(NCc1ccccc1)N1CCC(c2nc3ccccc3[nH]2)CC1,"inconclusive: 6.51 µM [inhibitor, single point]"
23,Cn1c(CS/C(N)=N/N=C/c2ccccc2)c(Br)c(=O)n1-c1ccccc1,inactive

row,Structure (SMILES),Potency
1,Cc1cc(N2CCN(c3ccccc3)CC2)nc(-c2ccccc2O)n1,"inconclusive: 29.1 µM [inhibitor, single point]"
2,Cc1ccc(C)c(-n2c(-c3cccnc3)n[nH]c2=S)c1,inactive
3,CCc1ccc(/C=N/NC(=O)c2cc(C3CC3)nc3ccccc23)s1,"inconclusive: 2.31 µM [inhibitor, partial curve, poor fit]"
4,Cc1ccccc1OCC(=O)Nc1nc(C)c(C(=O)N(C)C)s1,"inconclusive: 23.1 µM [activator, partial curve, poor fit]"
5,O=C(NNC(=O)C1CCN(S(=O)(=O)c2ccccc2C(F)(F)F)CC1)c1ccccc1O,"inconclusive: 29.1 µM [inhibitor, single point]"
6,CCS(=O)(=O)Nc1cccc(-c2ccc3nnc(C)n3n2)c1,"inconclusive: 20.6 µM [activator, partial curve]"
7,Cc1ccc(OC(C)C(=O)Nc2ncc(Cl)cc2Cl)c([N+](=O)[O-])n1 (stereo not given),"inconclusive: 20.6 µM [inhibitor, partial curve, poor fit]"
8,CC1CCCC(NC(=O)CSC2=Nc3ccccc3C3CC=NN23)C1C (stereo not given),inactive
9,CC1=CC2=NCC(O)CN2C=C1 (stereo not given),inactive
10,COc1ccc(OC)c(NC(=O)C2CCCN(S(=O)(=O)c3ccc(-n4cnnn4)cc3)C2)c1 (stereo not given),active: 25.9 µM
11,CCC1CN(C(=O)N2CCC(C(=O)NCCc3ccc(OC)c(OC)c3)CC2)c2ccccc2O1 (stereo not given),"inconclusive: 18.3 µM [inhibitor, partial curve]"
12,COc1ccc(C(=O)CC(=O)C(=O)Nc2ccccc2)cc1,"inconclusive: 5.17 µM [inhibitor, partial curve, poor fit]"
13,Nc1ccc(NC(=O)CCN2CCOCC2)cc1,inactive
14,O=C(Cc1ccccn1)c1ccc(F)cc1,"inconclusive: 35.5 µM [activator, single point]"
15,CCN(Cc1ccccc1)C(c1ccccn1)c1nnnn1C1CCCCC1 (stereo not given),inactive
16,O=C(Cn1nnc(-c2ccc3c(c2)OCO3)n1)Nc1ccccc1C(=O)O,"inconclusive: 14.6 µM [activator, partial curve, poor fit]"
17,O=C(CCl)N1CCN(S(=O)(=O)c2ccc3c(c2)OCCCO3)CC1,active: 18.3 µM
18,Cn1c2ccccc2c(=O)c2ccc(NCCc3cccs3)cc21,"inconclusive: 2.59 µM [activator, partial curve]"
19,Cc1cc(C)nc(NN=C(c2ccccc2)c2ccccc2)n1,"inconclusive: 18.4 µM [inhibitor, partial curve]"
20,COc1ccc(-c2c([C@H]3[C@H]4C=CC[C@@H](C)[C@@H]4C(=O)N3Cc3ccccc3)ccc3ccccc23)cc1,"inconclusive: 7.3 µM [inhibitor, partial curve, poor fit]"
21,NC(=O)C1(N2CCCCC2)CCN(C(=S)Nc2cc(F)cc(F)c2)CC1,"inconclusive: 29.1 µM [inhibitor, single point]"
22,Cc1ccc(Cl)cc1N1CCN(C(=O)C2CCN(S(=O)(=O)c3cnc[nH]3)CC2)CC1,inactive

# Three of the compounds above, with bars between the fields:
row | Structure (SMILES) | Potency
17 | O=C(CCl)N1CCN(S(=O)(=O)c2ccc3c(c2)OCCCO3)CC1 | active: 18.3 µM
18 | Cn1c2ccccc2c(=O)c2ccc(NCCc3cccs3)cc21 | inconclusive: 2.59 µM [activator, partial curve]
19 | Cc1cc(C)nc(NN=C(c2ccccc2)c2ccccc2)n1 | inconclusive: 18.4 µM [inhibitor, partial curve]
